# Assay results from PubChem BioAssay AID504408 (Broad Institute, 2011).
# Values joined by “and” are separate entries in the source; they are usually repeats but may differ in a detail not shown here. Identical values can stand only once. About 5,200 (1.7%) of roughly 300,000 compounds were called active. Inconclusive means that the source gave no clear call. Such entries were picked first, then a sample of the others.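 The calls were made as follows: active = mean replicate activation of at least 50% with a set share of replicates each reaching 50%; inconclusive = only one of those two conditions met; inactive = mean below 50% and too few replicates reaching it.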
# Experiment: HSF-1 activators, primary screen, NIH3T3-HGL cells, MG132 stress, luminescence, single point (AID 504408);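 also: 0% = median of the neutral control wells and 100% = twice that signal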
# Details: NIH3T3-HGL HSF-1 luciferase reporter, MG132, 8 h; at 9 µM; stronger effect = higher value; 100% = twice DMSO control signal
row,SMILES,activation
1,CCc1ccc(C(=O)CN2CCSC2=N)cc1,inconclusive: 55%
2,O=C(Nc1nc(-c2nc3ccccc3s2)cs1)C1CC1,active: 67.3%
3,COc1cccc(OCc2cc(C(=O)N(C)Cc3nc4ccccc4[nH]3)no2)c1,active: 61.2%
4,CC(=O)c1c(C)[nH]c(C(=O)Nc2cccc(C(F)(F)F)c2)c1C,inconclusive: 55%
5,CCOC(=O)C1(Cc2ccccc2Cl)CCN(C(=O)c2cnccn2)CC1,inconclusive: 54.4%
6,Cc1cc(C(=O)CSc2ccc3c(c2)OCCO3)c(C)n1C1CC1,inconclusive: 51.6%
7,Cc1ccc(NC(=O)C2CCCN2C(=O)OCc2ccccc2)c(O)c1 (configuration not stated),inactive: -3.42%
8,COc1cccc(OCc2cc(C(=O)N(C)CCC3CCCCO3)no2)c1 (configuration not stated),inconclusive: 63.4%
9,Cc1nc2c(C)cccc2cc1C(=O)N/N=C/c1cccc([N+](=O)[O-])c1,inactive: 8.8%
10,O=C(Nc1ccc(Cl)cc1N1CCOCC1)C1CCCCC1,inactive: -5.79%
11,NS(=O)(=O)c1ccc(CCNC(=O)c2ccc(Cl)s2)cc1,inactive: 3.19%
12,COc1ccc([N+](=O)[O-])cc1NC(=O)Cc1noc2ccccc12,inconclusive: 50.8%
13,Cc1cc(C)n(C2CC(=O)N(c3ccccc3)C2=O)n1 (configuration not stated),inactive: 5.04%
14,O=C(CSc1cc(Cl)ccc1Cl)NCC(=O)Nc1ccc(F)c(F)c1F,inconclusive: 51.4%
15,O=c1c2cc(Cl)ccc2oc2nc3n(c(=O)c12)CCCS3,inactive: -22.2%
16,Cc1ccc(NC(=O)c2ccc(NS(=O)(=O)/C=C/c3ccccc3)cc2)nc1,inactive: 12.8%
17,CNC(=S)N(C1=NCC(c2ccc([N+](=O)[O-])cc2)S1)c1ccccc1 (configuration not stated),inconclusive: 51.6%
18,CC(=O)OCCCNc1cc(Sc2ccc(Cl)cc2)c2nonc2c1[N+](=O)[O-],inconclusive: 56.9%
19,Cc1nc2ccc(-c3nc4ccccc4[nH]3)cc2[nH]1,inconclusive: 51.4%
20,CCCCCn1c(=NC(=O)c2ccco2)c(C(=O)OCC)cc2c(=O)n3ccccc3nc21,inactive: 18.1% and inactive: -23.4%
21,Cc1ccc(Oc2cc(NC(=O)CCCn3nc([N+](=O)[O-])cc3C)cc([N+](=O)[O-])c2)cc1,inactive: 14.7%
22,O=C1c2ccccc2C(=O)N1CCOc1cccc(Br)c1,inconclusive: 51%
23,COc1ccc2c(C)cc(N3CCCCCC3)nc2c1,inconclusive: 57.3%

row,SMILES,activation
1,CCN(CC)C(=O)CSc1nc2ccc(NC(=O)CSc3nnc(N)s3)cc2s1,inactive: 1.96%
2,O=C(Nc1ccn(Cc2ccccc2F)n1)c1ccc(COc2ccc(Cl)cc2Cl)o1,inconclusive: 58.8%
3,Cc1cc2ncn(CCOc3ccccc3)c2cc1C,inconclusive: 50.4%
4,O=C(COC(=O)c1cccc(O)c1)c1ccccc1,inconclusive: 51.4%
5,CCn1c(=O)cc(OCC(=O)Nc2ccc(OC)c(OC)c2)c2ccccc21,inconclusive: 51.5%
6,COC(=O)c1ccc(NC(=O)CSc2ccccc2)cc1,inactive: 33.1%
7,O=C(NCc1cccc(F)c1)c1noc2c1CCCC2,inconclusive: 50.1%
8,Nc1nc(Nc2cccc(Cl)c2)nc(NCc2ccco2)c1[N+](=O)[O-],inconclusive: 50.7%
9,N/C(Cc1cccs1)=N\OC(=O)COc1ccc(Cl)cc1Cl,inconclusive: 51.5%
10,CSc1ccc(C2c3[nH]c4ccccc4c3CCN2C(=O)c2ccnn2C)cc1 (configuration not stated),inconclusive: 53.2%
11,O=C(CCc1ccccc1)c1ccc2c(c1)OCCCO2,inconclusive: 51.2%
12,O=C(CSc1nnc(-c2ccccn2)n1Cc1ccco1)c1ccc(-c2ccccc2)cc1,inconclusive: 53.5%
13,O=C(COC(=O)CSc1nnc(-c2ccc(Cl)cc2)o1)NCc1ccc2c(c1)OCO2,inactive: -10.9%
14,C/C(=C\c1ccccc1)C(=O)Nc1nccs1,inconclusive: 58.1%
15,Cc1nc(-c2ccc3c(c2)OCCCO3)cs1,inconclusive: 59.1%
16,CCOC(=O)c1ccc(OS(=O)(=O)c2ccccc2)c(OC)c1,active: 62.8%
17,CCCCNC(=S)N1CCn2cccc2C1c1ccc(F)cc1 (configuration not stated),inactive: 6.39%
18,CN(C)S(=O)(=O)c1cccc(NC(=O)c2ccc3c(c2)OCCO3)c1,inconclusive: 51.1%
19,Cc1cc(C)c(C(=O)CN2C(=O)NC3(CCCCC3)C2=O)cc1C,inconclusive: 50.2%
20,Cc1[nH]c2ccccc2c1/C=C/c1nc2ccccc2c(=O)[nH]1,active: 80.2%
21,Cc1ccc(S(=O)(=O)NCc2ccc(C(=O)NCCc3ccc(S(N)(=O)=O)cc3)cc2)cc1,inconclusive: 50.8%
22,c1csc(-c2cn3ccc4ccccc4c3n2)c1,inconclusive: 50.3%
23,CCn1cc([N+](=O)[O-])c(C(=O)N2N=C(c3ccc(Cl)c(Cl)c3)CC2c2ccccc2O)n1 (configuration not stated),inconclusive: 62.5%

row,SMILES,activation
1,Clc1cccc(CN2CCN(Cc3nc(CCc4ccccc4)no3)CC2)c1,inconclusive: 57.3%
2,CCOC(=O)c1c(C)[nH]c(C(=O)C(C)OC(=O)c2cccc(OCc3c(C)noc3C)c2)c1C (configuration not stated),inconclusive: 51.2%
3,Cc1occc1C(=O)N/N=C/C=C/c1ccc(N(C)C)cc1,inactive: 5.61%
4,Cc1ccc(NC(=O)CSCc2cc(=O)n3nc(C4CC4)sc3n2)cc1,inactive: 8.41%
5,CCCCn1c(N)c(N(Cc2ccccc2OC)C(=O)c2cc(=O)[nH]c3ccccc23)c(=O)[nH]c1=O,inconclusive: 53.7%
6,COc1cccc(-n2cnnn2)c1,inactive: -18.1%
7,CC1CCN(c2nnc(NC(=O)Cn3c(=O)oc4ccccc43)s2)CC1,inactive: 3.96%
8,CC1(C)CC(=O)C2=C(C1)OC1=C(C(=O)CC(C)(C)C1)C2c1ccc(O)cc1O,inactive: 33.6%
9,O=C(Nc1nnc(SCC(=O)N2CCCc3ccccc32)s1)c1ccc2ccccc2c1,inconclusive: 50.2%
10,Cc1ccc(O)c(NC(=O)CSc2n[nH]c(-c3ccccc3)n2)c1,active: 109%
11,O=C(NCc1ccccn1)Nc1cccc(Cl)c1,active: 55.6%
12,COc1cccc(CN(C)C(=S)Nc2cccc(C)c2)c1,inactive: -8.35%
13,Cc1cc(C)nc(N/N=C/c2ccccc2OCc2cccc(Br)c2)n1,inactive: 7.38%
14,CC12CCC(C(=O)NCc3ccc(F)cc3)(OC1=O)C2(C)C (configuration not stated),inactive: -5.73%
15,CN(C)c1cccc(/C=C(\C#N)c2ccccc2)c1,active: 63.4%
16,CC(=O)N(C)c1ccc(NS(=O)(=O)Cc2ccccc2)cc1,inactive: -50.6%
17,COc1ccc2nc(NC(=O)CN3CCN(C)CC3)sc2c1,inactive: 19.4%
18,CCOc1ccc(-c2nc3ccccc3c(=O)o2)cc1,active: 55.1%
19,CNc1sc(C(=O)c2ccccc2F)c(N)c1-c1nc2ccccc2s1,inactive: -5.66%
20,O=C1NN(c2ccccc2)C(=O)/C1=C\c1ccc2c(c1)OCO2,inconclusive: 51.8%
21,COc1ccc(-c2cc(=O)[nH][nH]2)cc1,inconclusive: 54%
22,COc1cccc(/C=C/C(=O)Nc2ccc(OC)nc2)c1,inactive: 6.25%
23,Cc1nc2cc3nc(C(F)(F)F)[nH]c3cc2[nH]1,inconclusive: 50.7%

row,SMILES,activation
1,O=C(Cc1c(O)c2ccccc2oc1=O)c1ccc(C(F)(F)F)cc1,inconclusive: 50.7%
2,CC(/C=C/c1ccc(OCc2ccccc2)cc1)=N\O,inconclusive: 54%
3,Cc1ccccc1OCCCC(=O)Nc1ccccc1C(F)(F)F,active: 90.8%
4,COc1ccc(C(=O)CC(=O)C(=O)Nc2ccc(C)cc2Cl)cc1,inconclusive: 52.3%
5,Cc1cc2n(n1)SC(Nc1cccc3ccccc13)N2 (configuration not stated),inconclusive: 56%
6,O=C(CSc1ncnc2ccccc12)Nc1cc(S(=O)(=O)N2CCCCC2)ccc1Cl,inconclusive: 58.4%
7,Cc1ccc(OCC(=O)OCc2nc3scc(-c4ccccc4)c3c(=O)[nH]2)cc1C,inactive: 14.6%
8,CCCn1c(N/N=C\C=C\c2ccccc2)nc2c1c(=O)[nH]c(=O)n2C,inconclusive: 51.2%
9,C(=N\Nc1nc2ccccc2[nH]1)/c1ccc2c(c1)OCO2,active: 492%
10,O=C(NC1CCCCCCC1)c1ccc2c(c1)OCO2,inconclusive: 50.5%
11,Cc1ccc2c(c1)/C(=C/c1ccc(F)cc1)C(=O)N2,inconclusive: 52.7%
12,O=C(N/N=C/c1ccc(C(=O)O)cc1)C1=NNC(c2ccccc2)(c2ccccc2)C1,inactive: -2.04%
13,CN(CC(=O)Nc1ccccc1Cl)CC(=O)Nc1c(F)cccc1F,inconclusive: 50.2%
14,COc1ccc2c(c1OC)C(=O)OC2Nc1ccccn1 (configuration not stated),inactive: 0.731%
15,C=CCn1c(NC(=O)c2ccc(Br)o2)c(S(=O)(=O)c2ccccc2)c2nc3ccccc3nc21,inconclusive: 54.2%
16,CCOC(=O)Nc1ccc2c(c1)N(C(=O)CN1CCN(C)CC1)c1ccccc1S2,inconclusive: 50.3%
17,COc1ccc(C(=O)Nc2ccccc2C(=O)Nc2ccccc2C(=O)O)cc1,inconclusive: 50.2%
18,CCc1ccccc1NC(=O)c1cc(-c2cccs2)on1,inconclusive: 51.9%
19,CC(=O)C(=Nc1ccccc1Cl)NNc1ccc(Cl)cc1,inconclusive: 52.4%
20,NC(=O)CCCn1c(C(=O)c2ccc(Cl)cc2)c2ccc([N+](=O)[O-])cc2[n+]1[O-],inactive: 20.4%
21,COCOc1cc(O)c(C(=O)/C=C/c2ccc(OCOC)c(OCOC)c2)c(OCOC)c1,inconclusive: 50.5%
22,COC(=O)c1cc(CSc2nc3ccccc3[nH]2)oc1C,inconclusive: 57%
23,CCC(Sc1ncccc1C(=O)Oc1cccc([N+](=O)[O-])c1)C(=O)Nc1ccccc1OC (configuration not stated),inconclusive: 51.9%
